From PubChem BioAssay (Tox21)
Where “and” joins values, the source holds several entries; their conditions need not be identical. Equal values may be shown once. The shares of active, inactive and inconclusive entries below differ from those in the screen. Potencies beside an inconclusive call are fits to weak or partial responses and may not hold up. Calls of active or inactive are those of the source. Calls come from the whole dose curve.

Chains of the proteins cited; added tags and fusions are not shown.
UniProt P28223, whole entry, looked up: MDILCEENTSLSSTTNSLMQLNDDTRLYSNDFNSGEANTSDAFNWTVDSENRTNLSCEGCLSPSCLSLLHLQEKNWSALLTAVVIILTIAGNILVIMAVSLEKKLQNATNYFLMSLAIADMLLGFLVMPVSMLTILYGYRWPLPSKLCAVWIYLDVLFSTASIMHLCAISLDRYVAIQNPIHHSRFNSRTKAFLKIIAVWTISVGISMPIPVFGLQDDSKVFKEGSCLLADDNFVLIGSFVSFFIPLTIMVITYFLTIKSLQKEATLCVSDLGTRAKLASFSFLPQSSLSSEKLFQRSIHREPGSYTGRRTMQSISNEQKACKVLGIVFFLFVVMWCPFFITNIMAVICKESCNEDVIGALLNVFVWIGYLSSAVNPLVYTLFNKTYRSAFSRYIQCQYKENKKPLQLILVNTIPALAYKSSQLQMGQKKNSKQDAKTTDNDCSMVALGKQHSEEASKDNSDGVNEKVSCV

Test system: not listed separately
Experiment: p53 small molecule agonists, cell-based qHTS assay with rat liver microsomes: qHTS cell viability counter screen (AID 1963580); note: nearly all actives have a fitted effect of over 45% in size
Conditions: p53RE-bla HCT-116 + rat microsomes, ATP viability, 16 h; series mostly up to 66 µM; activity change, negative = cytotoxicity: at the top concentration
In short: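 p53RE-bla HCT-116 cells (4,000/well) rested 5 h at 37 C, then given Tox21 compounds in DMSO with rat liver microsomes (0.5 mg/mL final) plus NADPH (0.5 mg/mL final) for 16 h at 37 C. Viability read by CellTiter-Glo luminescence after 30 min at room temperature.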
% is set by controls: 0 for no effect and ±100 for the full control effect; potency is the fitted concentration of half-maximal effect.

Row | SMILES | Potency | activity change, negative = cytotoxicity
1 | CCCCCC1C(=O)CCC1CC(=O)OC (configuration not stated) | inconclusive: 10.1 µM [cytotoxic, single point] | 
2 | CN(C)C/C=C(/c1ccc(Br)cc1)c1cccnc1 | inconclusive: 2.23 µM [cytotoxic, single point] | 
3 | C=CC1CC2C=CC1C2 (configuration not stated) |  | inactive: 2.77%
4 | CCOC(C)=O | inconclusive: 1.83 µM [cytotoxic, single point] | 
5 | CCOc1cc(OCC)c(C(C)=O)cc1OCC | inconclusive: 0.401 µM [cytotoxic, single point] | 
6 | Cn1sccc1=O | inconclusive: 9.13 µM [cytotoxic, full curve] and active: 18.2 µM | 
7 | CCCOC(C(=O)OC1CCN(C)CC1)(c1ccccc1)c1ccccc1 |  | inactive: 5.43% [at 30.3 µM]
8 | OCCN(CCO)c1ccccc1 | inconclusive: 45.8 µM [rising, single point] | 
9 | CCCCCCOCCO | inconclusive: 16.4 µM [cytotoxic, single point] | 
10 | CC(C)=NNC(N)=S | inconclusive: 1.62 µM [cytotoxic, single point] | 
11 | Cc1cccc2ccccc12 | inconclusive: 3.69 µM [cytotoxic, partial curve] | 
12 | COc1cccc(-c2ccc(/C=C\CN3CCCCCC3)cc2Cl)c1 | active: 40.6 µM | 
13 | COC(=O)OC | inactive | 
14 | CC(=O)Nc1ccc(C)cc1C |  | inactive: 9.67%
15 | CCCCCCCCCCCCSCCOCCO |  | inactive: 0.554% [at 30.3 µM]
16 | O=C(NCCc1c[nH]c2ccccc12)c1cccnc1 |  | inactive: 3.6% [at 30.3 µM]
17 | c1ccc(C[P+](c2ccccc2)(c2ccccc2)c2ccccc2)cc1 | inconclusive: 0.145 µM [cytotoxic, full curve, poor fit] | 
18 | CCCC(C)C=O (configuration not stated) | inconclusive: 0.576 µM [rising, partial curve, poor fit] | 
19 | OC[C@H]1O[C@@](CO)(O[C@H]2O[C@H](CO)[C@@H](O)[C@H](O)[C@H]2O)[C@@H](O)[C@@H]1O | inconclusive: 408 nM [cytotoxic, single point] and inconclusive: 162 nM [cytotoxic, single point] | 
20 | C[N+](C)(C)CCO | inconclusive: 4.6 µM [cytotoxic, single point] | 

3 compounds already listed, arranged by count of non-hydrogen atoms, ascending.
Row | SMILES | Potency | activity change, negative = cytotoxicity
14 | CC(=O)Nc1ccc(C)cc1C |  | inactive: 9.67%
1 | CCCCCC1C(=O)CCC1CC(=O)OC (configuration not stated) | inconclusive: 10.1 µM [cytotoxic, single point] | 
16 | O=C(NCCc1c[nH]c2ccccc12)c1cccnc1 |  | inactive: 3.6% [at 30.3 µM]

Next part

Row | SMILES | Potency | activity change, negative = cytotoxicity
21 | O=CN1CCOCC1 |  | inactive: -9.25%
22 | CCCCCCCCCCO[C@@H]1O[C@H](CO)[C@@H](O)[C@H](O)[C@H]1O |  | inactive: 0%
23 | OCCc1ccncc1 |  | inactive: 1.76%
24 | C1=CCCC1 | inconclusive: 1.82 µM [cytotoxic, single point] | 
25 | CCCCCCCCC(=O)OCC |  | inactive: 0.941%
26 | O=C(O)CC(=O)C(=O)O | inconclusive: 0.205 µM [rising, partial curve] | 
27 | O=C(c1ccc2c(c1)C(=O)OC2=O)c1ccc2c(c1)C(=O)OC2=O |  | inactive: -0.575%
28 | O=C(OCC1CCC2OC2C1)C1CCC2OC2C1 (configuration not stated) | inconclusive: 5.37 µM [cytotoxic, single point] | 
29 | Cc1cc(C)cc([N+](=O)[O-])c1 |  | inactive: 2.55%
30 | CCOc1nc(F)cc2nc(S(=O)(=O)Nc3c(Cl)cccc3C(=O)OC)nn12 | inconclusive: 0.408 µM [cytotoxic, single point] | 
31 | Nc1ccc(C(=O)OCCCOC(=O)c2ccc(N)cc2)cc1 | inconclusive: 51.3 µM [rising, partial curve, poor fit] | 
32 | C#C[C@]1(O)CC[C@H]2[C@@H]3CCC4=Cc5oncc5C[C@]4(C)[C@H]3CC[C@@]21C | inconclusive: 45.8 µM [cytotoxic, single point] | 
33 | NNS(=O)(=O)c1ccc(Oc2ccc(S(=O)(=O)NN)cc2)cc1 |  | inactive: -5.3%
34 | c1ccc(COCc2ccccc2)cc1 | inconclusive: 0.478 µM [cytotoxic, single point] | 
35 | CC(=O)[C@H]1CC[C@H]2[C@@H]3C=CC4=CC(=O)CC[C@@]4(C)[C@@H]3CC[C@]12C |  | inactive: 0.562% [at 30.3 µM]
36 | CN(C)CCOC(=O)COc1ccc(Cl)cc1 | inactive | 
37 | COc1ccc(Nc2ccccc2)c(C)c1 | inactive | 
38 | CCCCCCCCCCCCCCCCCCOS(=O)(=O)O | inconclusive: 51.3 µM [cytotoxic, single point] | 
39 | CCOc1ccc(C(=O)OCCN(CC)CC)cc1 | inconclusive: 0.89 µM [cytotoxic, single point] | 
40 | O=C(OCC(O)CO)c1ccccc1Nc1ccnc2c(C(F)(F)F)cccc12 (configuration not stated) |  | inactive: -9.2% [at 30.3 µM]

Target: 5-hydroxytryptamine receptor 2A (Homo sapiens) (UniProt P28223)
Experiment: 5-hydroxytryptamine receptor 2A (HTR2A) small molecule agonists, cell-based qHTS assay (AID 1963587); note: nearly all actives have a fitted effect of over 30% in size
Conditions: HTR2A-CHO cells, calcium flux fluorescence, agonist mode; series mostly up to 76.8 µM; activation: at the top concentration
In short: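 HTR2A-CHO cells, plated 18 h at 37 C/5% CO2, dye-loaded 1 h at 37 C; compounds in DMSO added by pin tool (agonist mode). Intracellular calcium flux read as kinetic fluorescence on FDSS over 2 min at 1 s intervals.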

Row | SMILES | Potency | activation
41 | Cn1sccc1=O | inconclusive: 21.9 µM [activator, partial curve] | 
42 | OCCN(CCO)c1ccccc1 |  | inactive: -6.05%
43 | COC(=O)OC | inactive | 
44 | O=CN1CCOCC1 |  | inactive: 0.113%
45 | CCCCCCCCCCO[C@@H]1O[C@H](CO)[C@@H](O)[C@H](O)[C@H]1O | inconclusive: 54.9 µM [activator, partial curve, poor fit] | 
46 | O=C(O)CC(=O)C(=O)O | inconclusive: 49.1 µM [activator, partial curve, poor fit] | 
47 | CCCCCCCCCCCCCCCCCCOS(=O)(=O)O | inconclusive: 43.6 µM [activator, partial curve, poor fit] | 
